Reference: paper PMC9949351, “Chromatin localization of nucleophosmin organizes ribosome biogenesis” (Molecular cell, 2022)
No constants are given. Whether binding was seen depends on the method and setting. For some of these results: Binding seen in cells or lysates may run through a third protein. Some entries that bind do so weakly or less than the wild type. Where a sequence is shown, tags or fusion partners need not be part of it. Each block holds one binder with its values, some of them ahead of it.

Tests used:
[1] = molecular target: T1, endogenously FLAG-tagged Fkbp39 (S. pombe) (UniProt O74191); test: affinity purification with cryo-EM of the eluted particles; particles pulled down with Fkbp39-FLAG from S. pombe; no clear density for Fkbp39 in the maps
T1 sequence: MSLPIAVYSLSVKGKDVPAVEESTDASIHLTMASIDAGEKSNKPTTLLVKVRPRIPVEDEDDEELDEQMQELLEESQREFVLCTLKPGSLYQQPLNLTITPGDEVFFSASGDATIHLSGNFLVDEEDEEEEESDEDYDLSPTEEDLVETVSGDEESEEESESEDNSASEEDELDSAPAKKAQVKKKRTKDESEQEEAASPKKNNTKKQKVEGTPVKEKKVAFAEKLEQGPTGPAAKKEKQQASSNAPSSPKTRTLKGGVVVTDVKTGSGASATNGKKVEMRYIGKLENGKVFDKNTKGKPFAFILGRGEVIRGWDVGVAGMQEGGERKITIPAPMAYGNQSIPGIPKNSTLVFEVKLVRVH

FLAG-Ytm1 (S. pombe) = molecular target: T2, FLAG-Ytm1 (S. pombe) (UniProt Q9URY0); test: cryo-EM structure; nascent 60S purified through FLAG-Ytm1 from wild-type and fkbp39Δ S. pombe cells; maps at 2.8 to 3.8 Å
T2 sequence: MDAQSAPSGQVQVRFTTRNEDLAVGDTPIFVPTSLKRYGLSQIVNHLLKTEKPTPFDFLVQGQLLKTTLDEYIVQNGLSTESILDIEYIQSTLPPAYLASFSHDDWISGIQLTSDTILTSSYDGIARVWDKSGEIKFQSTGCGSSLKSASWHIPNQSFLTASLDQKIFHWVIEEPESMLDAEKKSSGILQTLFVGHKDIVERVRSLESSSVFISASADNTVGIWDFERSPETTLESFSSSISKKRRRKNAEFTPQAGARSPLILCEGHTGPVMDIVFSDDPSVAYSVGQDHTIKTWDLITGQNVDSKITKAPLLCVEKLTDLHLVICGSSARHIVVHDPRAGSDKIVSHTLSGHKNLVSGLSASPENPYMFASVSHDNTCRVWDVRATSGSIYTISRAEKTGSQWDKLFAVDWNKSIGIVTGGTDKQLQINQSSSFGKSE

[2] = molecular target: T1, endogenously FLAG-tagged Fkbp39 (S. pombe); test: co-IP; in vivo: S. pombe lysate with nuclease, anti-FLAG M2 affinity gel, 100 mM NaCl, 5 mM MgCl2, 50 mM Tris pH 7.5, 0.1% Nonidet P40, 3XFLAG peptide elution, western blot (anti-FLAG, anti-HA)

- binding [1]: binds
B1: Ytm1 (protein, UniProt Q9URY0 1-440)
chain: T2 sequence

- binding [1]: binds
- binding (FLAG-Ytm1 (S. pombe)): binds
B4: Ppp1 (protein, UniProt O60164 1-607)
chain: MARVKQKGKAGAARIYITRNQALKKLQLTLADFRRICILKGVYPREPKNKKKANKGSTAPVTFYYTKDIQYLLHEPIVQKFREYKVFARKLSKALGKGELETAKRLEARKPTYSLDHIIKERYPTFHDALKDIDDALSMLFLFSTMPVTDKIGAATVANCERLCAEFQHYVIRSNSLRKAFLSIKGIYYQAEIFGEQITWIVPYKFAQSVPTDVDFRIMHTFLEFYQALMGFVNFKLYNTLGLRYPPKIDVAKSESAAGLAAYELEESSSLPAIVHGNNKNARKNIATLKSKIRDIVNSDANVVEQSEKTTEDADEEPETEENLDEFKPADGADNEDSKSLVSHISSSNTSLFSNFTFFLSREVPRFSLEFVIRAFGGKVGWDPILGSGSPFSESDPVITHHICDRPHISQKYEGRIYIQPQWVYDSINKGILERTDLYACGATLPPHLSPFVKVGENDYDPEAELSAEENDDVSEALDDNISGEAVPISKKNDEPENVEQIDDAEEEDLEHQRELEAEAGGVAYSEYVKQNSKSAKKTKKRQRDTLTAEEKEEKEAKELSKMMMSNKQRKLYSKLKNENSKNENYNNALRNRKRDIEKRKKLKVEN

- binding [2]: binds
B5: Fkbp41 (natural protein, S. pombe, UniProt Q10175 1-362, looked up)
chain: MSKEETLYSVKVDQERVPLFDEDFYKGFRSELSVRFTMAALDPRAKSNDAVTVNVITRLEHPEEDGEESDEELFQEEKFTLCTLKKGSVYQQPIDIIFSPGEEVFFERVGGDIPVYLSGTCIITNIPEEEDSSDLENDFLYGADEFSSDEEEMDDISVTSSEEEEEENGARIEELNSDEEDAEQAEEEILEKPVPKDEVAEKHSKDKLKKEEKEKKTAVDVSDSVNGKKRKTEPAGEGEQTEKKSKSTKTYPKQVLEGNVTVQDKVKGDGPAAKRKKRVSMRYIGRLTNGKVFDKNITGKPFTFNLGLEEVIKGWDVGIVGMQVGGERTIHIPAAMAYGSKRLPGIPANSDLVFDVKLLAVN
notes: Fkbp41, S. pombe, SPAC27F1.06c; cloned into a pETDuet vector behind 6xHis-SUMO and an HRV-3C site; also called nucleophosmin-like protein Fkbp41; SPAC27F1.06c; source: E. coli Rosetta (DE3), purified (Ni Sepharose, tag removed, Q ion exchange, at times SEC); not shown: 6xHis, N-terminal, cleaved; SUMO, N-terminal, cleaved

Further lines, the binder ahead of its results:

B2: Rlp7 (protein, UniProt P17937 1-249)
chain: MAEDAPVVQQTMLEPEVLLKKRKVNERTRKERVEQAIAKKEAQKKNRKETFKRAETFINNYRQRERERIRLNRSAKNKGDIFVPDETKLLFVIRIAGVKNMPPKIRKVLRLLRLSRINNAVFVRNNKAVAQMLRIVEPYVMYGIPNLHSVRELIYKRGFGKINGQRIALSDNALIEEALGKYDVISIEDIIHEIYNVGSHFKEVTKFLWPFTLTPVKHSLMEKKVKHFNEGRKAGYCGEEINELIKKQV
- binding (FLAG-Ytm1 (S. pombe)): binds

B3: Erb1 (protein, UniProt O74399 1-740)
chain: METGMNRKRSRSKRANSNVGVEKDKEKEKSKGVSNVPNEVETESSSHEPSFKKDVDEEIPSLTAELSEEEEGEYSSESGRSTPELSPDDFEDADDEEEFEEIDAGYSSDSSTEDVAPGLYESPYDENLYINYDIDGKKITRPATPAALDSLIASIDKDKGWTGIVDPMTGKPVNLTTEELGLLKRLAQSEIPDENFDPYPDYDDFFTNTVRETPLSSAPEPKRRFAPSKHEQKRILQLAYAIRKGRILTSEQRAERERESQSNYADHDLWADDDQATVNQRKLDYAPAPKLPPPSHEESYNPPEEYLKQSSDFPKKYKSLRVVPAYSNLIKEKFERCLDLYLAPRVRRTKLNIDPESLLPKLPTPSELRPFPTRCTNVFIGHKGRVRCLSVHVSGNWLASGGDDGVLRIWEVMTGRCVWKCSLDSFGNAHNIDSDEDAVNESLSHSTKSSIIQSLAWGPLSDSPVLAVAVDETVYFITPPIFSDEQIEASKELFTSAPYQESSAIWRRGAKQSLQLHGGIVHATVSTPSSIKSLSWHRRGDYLATSSPTSSSQAVLIHQLSRGASQSPFSKSKGSVQAVTFHPTMPYLLVATQRYVRIYNLVKQELVKTLLTGVKWVSSLSVHSSGDHVIIGSYDKRLCWFDLDFSSKPYKNLRYHSRALRDVSYHPSLPLFCSGSDDGDVQVFHGRVYSDLLANPLIVPLKILRNHKVVDNVGVLSTCWHPKEAWLFSAGAGGEIRMWT
- binding [1]: binds
- binding (FLAG-Ytm1 (S. pombe)): binds
